From PMC11433124, “Novel Galectins Purified from the Sponge Chondrilla australiensis: Unique Structural Features and Cytotoxic Effects on Colorectal Cancer Cells Mediated by TF-Antigen Binding” (Marine Drugs, 2024)

Test system: T1, hRTL
T1 construct: gene hRTL-P1; native, purified from sponge on lactosyl-agarose; mature protein, N-terminal signal peptide (printed as 23 residues); 141 residues; N-terminus DYIEFES (major), EYVEVES (minor)
Experiment: inhibition of hemagglutination (rabbit erythrocytes), two-fold dilutions
Assay type: cell-based, Chondrilla australiensis
Details: lectin titer 16; TBS, 0.01% Triton X-100, room temperature, 1 h
Text: inhibition of hemagglutination (rabbit erythrocytes), two-fold dilutions on hRTL

Compound | Minimum Inhibitory Concentration [mM]
CC(=O)N[C@H]1C(O)O[C@H](CO)[C@H](O)[C@@H]1O (stereo partly drawn) [D-GalNAc] | > 50
OC[C@H]1OC(O)[C@H](O)[C@@H](O)[C@H]1O (stereo partly drawn) [D-galactose] | 25
OC[C@H]1O[C@@H](O[C@H]2[C@H](O)[C@@H](O)C(O)O[C@@H]2CO)[C@H](O)[C@@H](O)[C@H]1O (some centres unmarked) [Lactose, Galβ1-4Glc] | 3.2
OC[C@H]1O[C@H](OC[C@H]2OC(O)[C@H](O)[C@@H](O)[C@@H]2O)[C@H](O)[C@@H](O)[C@H]1O (some centres unmarked) [Melibiose, Galα1-6Glc] | 50
CC(=O)N[C@H]1C(O)O[C@H](CO)[C@H](O)[C@@H]1O[C@@H]1O[C@H](CO)[C@H](O)[C@H](O)[C@H]1O (some centres unmarked) [TF-antigen, Galβ1-3GalNAc] | 1.6
